{"source": "PubChem BioAssay AID686943 (Drosophila RNAi Screening Center, 2013)", "purpose": "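Search across the genome for regulators of signalling from receptor tyrosine kinase to ERK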 (primary screen)", "system": "Drosophila S2R+ haemocyte-like cells expressing YFP-tagged ERK (Rolled)", "reagents": "long dsRNA against Drosophila genes", "conditions": "insulin stimulation versus unstimulated cells; dose and duration not given", "detection": "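Per-plate z-scores of phospho-ERK immunostaining normalised to YFP-tagged ERK, measured with and without insulin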", "scale": "replicate 1, z-score of dpERK with insulin: higher = more active ERK per ERK-YFP after insulin", "note": "The deposit covers about 23,000 reagents; this is a random part of those with a known target gene and a result. 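Extra replicates exist only for a retested subset of genes; insulin dose and duration not given; both raised and lowered dpERK matter.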 The numbers tell different reagents against one gene apart. Further read-outs or replicates are left out here. Not stated in the record: the amount of reagent, the time to read-out."}
{"gene": "exd", "dsRNA no.": 1, "replicate 1, z-score of dpERK with insulin": 0.11}
{"gene": "Pbp95", "dsRNA no.": 1, "replicate 1, z-score of dpERK with insulin": -0.73}
{"gene": "DCX-EMAP", "dsRNA no.": 1, "replicate 1, z-score of dpERK with insulin": 0.35}
{"gene": "DCX-EMAP", "dsRNA no.": 2, "replicate 1, z-score of dpERK with insulin": -0.74}
{"gene": "Naa80", "dsRNA no.": 1, "replicate 1, z-score of dpERK with insulin": -0.37}
{"gene": "Naxd", "dsRNA no.": 1, "replicate 1, z-score of dpERK with insulin": -0.33}
{"gene": "dgo", "dsRNA no.": 1, "replicate 1, z-score of dpERK with insulin": 0.41}
{"gene": "CG7294", "dsRNA no.": 1, "replicate 1, z-score of dpERK with insulin": 0.62}
{"gene": "eys", "dsRNA no.": 1, "replicate 1, z-score of dpERK with insulin": -2.5}
{"gene": "eys", "dsRNA no.": 2, "replicate 1, z-score of dpERK with insulin": -2.06}
{"gene": "eys", "dsRNA no.": 3, "replicate 1, z-score of dpERK with insulin": 0.63}
{"gene": "eys", "dsRNA no.": 4, "replicate 1, z-score of dpERK with insulin": -0.2}
